# Data as given in PubChem BioAssay AID504467 (National Center for Advancing Translational Sciences (NCATS), 2011).
# Out of some 330,000 compounds screened, about 7,700 (2.3%) were called active. The shares of active, inactive and inconclusive entries below differ from those in the screen. The call rests on the fitted dose curve; in most records, active means well fitted inhibition curve with a large enough effect; inconclusive means small, poorly fitted or top-dose-only effect, or effect the other way; inactive means flat fitted curve, though single readings scatter. Where the call is inconclusive, the potency comes from a doubtful curve fit.
# Assay: qHTS screen for small molecules that inhibit ELG1-dependent DNA repair in human embryonic kidney (HEK293T) cells expressing luciferase-tagged ELG1; further: nearly all actives have a fitted effect of over 55% in size
# Conditions: HEK293T ELG1-luciferase reporter, luminescence, 16 h, DNA damage induced by 5-fluorouridine; activity change, negative = inhibition: at 46.1 µM (top of the series)
# Summary of the method: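 DMSO vehicle served as the neutral condition. Each well held 2,000 cells given 5-fluorouridine plus compound; after 16 hr at 37 °C/5% CO2, ONE-Glo was added and luciferase measured 30 min later.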
# On the % scale 0 is the no-effect control and ±100 the full control effect; potency means the concentration at half of the fitted maximal effect.
SMILES,Potency,"activity change, negative = inhibition"
COc1cccc(CNC(=O)C2CCC(CNc3nc(=S)[nH]c4ccccc34)CC2)c1 (stereo not given),"inconclusive: 29.1 µM [activator, single point]",–
COc1ccc(C(CCN2CCOCC2)c2c(OC)cc(OC)c3c(C)cc(=O)oc23)cc1 (stereo not given),"inconclusive: 29.1 µM [activator, single point]",–
O=C(Cn1cnc2c(nnn2-c2cccc(Cl)c2)c1=O)NCc1ccccc1,–,inactive: 6.96%
COc1ccc(COC(=O)C2=C(C)NC(=O)NC2c2cc(OC)ccc2OC)cc1 (stereo not given),–,inactive: -7.1%
O=C(NNC(=O)c1ccccc1O)c1ccco1,"inconclusive: 16.4 µM [activator, partial curve]",–
Cc1csc(=O)n1CC(=O)OCC(=O)NNC(=O)c1ccc(Cl)cc1,–,inactive: -0.975%
COC(=O)C1CN(C(=O)COc2cccc(C)c2C)c2ccccc2O1 (stereo not given),"inconclusive: 20.6 µM [activator, single point]",–
CC(C)=CCN1CCN(Cc2ccc(C#CC(C)(C)O)s2)CC1CCO (stereo not given),–,inactive: -0.398%
Cc1ccc(NC(=O)/C=C/C(=O)O)c([N+](=O)[O-])c1,"inconclusive: 18.4 µM [activator, partial curve, poor fit]",–
CC(C)c1ccc(N(CC(=O)NCCCN2CCOCC2)S(=O)(=O)c2ccccc2)cc1,"inconclusive: 6.51 µM [activator, full curve, poor fit]",–
O=C(Cn1cc[n+](CC(=O)c2ccc(Cl)cc2Cl)c1)c1ccc(Cl)cc1Cl,"inconclusive: 29.1 µM [inhibitor, single point]",–
CCOC(=O)c1cc(C#N)c(SCC(=O)c2cc(C#N)c(SC)nc2C)nc1C,"inconclusive: 23.1 µM [inhibitor, single point]",–
Cc1ccc(S(=O)(=O)c2c(N)n(Cc3ccco3)c3nc4ccccc4nc23)cc1C,–,inactive: -17.3%
C/C(=N\NC(=O)COc1ccc(C(C)(C)C)cc1)c1ccccc1,–,inactive: -10.2%
O=C(Cc1ccc(N2CCNC2=O)cc1)N1CCCC(Nc2ccc(F)c(F)c2)C1 (stereo not given),–,inactive: 2.2%
Cc1ccc(NC(=O)CN2c3cccc4cccc(c34)S2(=O)=O)cc1,"inconclusive: 25.9 µM [inhibitor, partial curve, poor fit]",–
CC(C)c1ccc(NC(=O)[C@H](NC(=O)[C@@H]2Cc3ccccc3CN2)c2ccccc2)cc1,–,inactive: 18.5%
Cc1cccc(C(=O)N2CCC(=O)N(C(COCc3ccccc3)Cc3ccccc3)CC2)c1 (stereo not given),–,inactive: -4.78%
COc1ccccc1NC(=O)C(=O)Nc1ccccn1,"inconclusive: 8.2 µM [activator, partial curve]",–
CC1CCN(C(=O)CCC(=O)Nc2nnc(C3CCCCC3)s2)CC1,–,inactive: 12.7%
O=C(Nc1ccc2oc(-c3cccnc3)nc2c1)c1cc2ccccc2o1,active: 18.4 µM,–
NC(=O)/C=C\c1cn(-c2ccccc2)nc1-c1ccc2c(c1)OCCO2,active: 16.4 µM,–
Cc1ccc(C)c(NC(=O)CCc2ccc(C)o2)c1,–,inactive: 12.2%

SMILES,Potency,"activity change, negative = inhibition"
COc1ccc(OC)c(NC(=O)CC2SC(=Nc3ccccc3)N(CCc3ccccn3)C2=O)c1 (stereo not given),"inconclusive: 14.6 µM [inhibitor, partial curve]",–
CC(=O)c1cccc(NC(=S)NCCc2ccc(Cl)cc2)c1,"inconclusive: 29.1 µM [inhibitor, single point]",–
COCCOC(=O)C1=C(C)N=c2s/c(=C\c3cccs3)c(=O)n2C1c1cccs1 (stereo not given),active: 14.6 µM,–
O=C(NNC(=O)C1CCN(Cc2ccc(Cl)c(Cl)c2)CC1)c1cccs1,"inconclusive: 29.1 µM [inhibitor, single point]",–
COC(=O)c1scc(C#N)c1N/N=C(\C#N)S(=O)(=O)c1ccc(Cl)cc1,"inconclusive: 25.9 µM [inhibitor, single point]",–
COc1cccc(C(=O)N(Cc2ccccc2)Cc2cc3cc4c(cc3[nH]c2=O)OCCO4)c1,"inconclusive: 18.4 µM [inhibitor, single point]",–
CCSc1nnc(NC(=O)c2cccnc2)s1,"inconclusive: 25.9 µM [activator, single point]",–
O=C(NCCCN1CCOCC1)c1cc(-c2ccc(F)cc2)on1,"inconclusive: 20.6 µM [activator, single point]",–
O=C(N/N=C/c1cccs1)c1cccc2cc[nH]c12,–,inactive: -3.55%
C=CCn1c(SCC(=O)Nc2ccccc2)nc2scc(-c3cccs3)c2c1=O,"inconclusive: 20.6 µM [inhibitor, single point]",–
CCCCCCC(=O)N(O)C1CC(=O)N(c2ccc(C)cc2)C1=O (stereo not given),"inconclusive: 18.4 µM [activator, single point]",–
O=C(NC(=S)N1CCOCC1)c1cn(-c2ccccc2)nc1-c1ccc(F)cc1,–,inactive: -21.7%
Cc1ccc(C)c2[nH]c(=O)c(CN(CCN3CCCC3)C(=O)Nc3cccc(Cl)c3)cc12,active: 14.6 µM,–
CCc1ccc(C=NC23CN4CN(CN(C4)C2)C3)s1,"inconclusive: 23.1 µM [activator, single point]",–
CC(=O)c1c(C)[nH]c(C(=O)OCC(=O)NCc2cccs2)c1C,"inconclusive: 20.6 µM [activator, single point]",–
C/C(N)=C(/C#N)C(=O)CSc1n[nH]c(-c2ccccc2Br)n1,"inconclusive: 29.1 µM [activator, single point]",–
Cc1nn(CC(O)c2ccccc2)c(C)c1Br (stereo not given),"inconclusive: 29.1 µM [activator, single point]",–
Cn1cccc1C(=O)NC(=O)COC(=O)c1ccc(S(C)(=O)=O)c([N+](=O)[O-])c1,"inconclusive: 29.1 µM [inhibitor, single point]",–
COc1ccc(CN2CC(=O)N3[C@H]4c5ccc(OC)cc5OC[C@@H]4[C@H](c4ccccc4)[C@]3(C)C2=O)cc1,"inconclusive: 25.9 µM [inhibitor, single point]",–
CCOC(=O)C(Oc1ccc2c(-c3ccccc3)cc(=O)oc2c1C)c1ccccc1 (stereo not given),–,inactive: -21%
Cc1ccc(NC(=O)c2sc(N)nc2-c2ccc([N+](=O)[O-])cc2)cc1C,"inconclusive: 29.1 µM [activator, single point]",–
CCC1CCCCN1CCCNC(=O)Cn1c(=O)c2cccn2c2cccnc21 (stereo not given),"inconclusive: 18.3 µM [activator, partial curve, poor fit]",–

# A section from further up, as a working copy:
SMILES,Potency,"activity change, negative = inhibition"
COc1ccc(C(CCN2CCOCC2)c2c(OC)cc(OC)c3c(C)cc(=O)oc23)cc1 (stereo not given),"inconclusive: 29.1 µM [activator, single point]",–
O=C(Cn1cnc2c(nnn2-c2cccc(Cl)c2)c1=O)NCc1ccccc1,–,inactive: 6.96%
COc1ccc(COC(=O)C2=C(C)NC(=O)NC2c2cc(OC)ccc2OC)cc1 (stereo not given),–,inactive: -7.1%
O=C(NNC(=O)c1ccccc1O)c1ccco1,"inconclusive: 16.4 µM [activator, partial curve]",–
Cc1csc(=O)n1CC(=O)OCC(=O)NNC(=O)c1ccc(Cl)cc1,–,inactive: -0.975%
COC(=O)C1CN(C(=O)COc2cccc(C)c2C)c2ccccc2O1 (stereo not given),"inconclusive: 20.6 µM [activator, single point]",–
CC(C)=CCN1CCN(Cc2ccc(C#CC(C)(C)O)s2)CC1CCO (stereo not given),–,inactive: -0.398%
Cc1ccc(NC(=O)/C=C/C(=O)O)c([N+](=O)[O-])c1,"inconclusive: 18.4 µM [activator, partial curve, poor fit]",–
